From PubChem BioAssay AID2685 (National Center for Advancing Translational Sciences (NCATS), 2010)
This is one part of the list. These are further read-outs of the screen, such as a control signal, another cell line or another target. No call is given for them. Most of these compounds were active or inconclusive in the main read-out, so they are no random draw. Words in brackets tell the shape of the fitted curve; partial curves, single points and poor fits give uncertain potencies.

Test: qHTS Assay for Lipid Storage Modulators in Drosophila S3 Cells;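 as to cell number change: cells counted by Cell Tracker Red CMTPX staining in the red channel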
Settings: BODIPY lipid droplet fluorescence, 18-24 h; for cell number change: measured here: cell count max response, cells fed with added oleic acid
How it was run: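 Drosophila S3 cells got compounds at several concentrations plus oleic acid (400 uM solution). Laser-scanning cytometry with 488 nm excitation read lipid droplets at 500-530 nm and cells at 575-640 nm. Percent activity was relative to 20 uM Triacsin C.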

[1] = measured here: lipid fluorescence (Fed channel) AC50, cells fed with added oleic acid
[2] = measured here: cell number channel AC50, cells fed with added oleic acid

Compound	cell number change [%]	AC50 [1]	AC50 [2]
CC1=C(C)NC(=S)SC1	12.3	2.31 µM [falling, partial curve, poor fit]	–
COc1ccc(CCNC(=O)c2ccc(OCc3c(C)noc3C)cc2)cc1OC	5.64	29.1 µM [falling, single point]	–
O=c1nc2ccc(Cl)cn2c2ccc(S(=O)(=O)N3CCOCC3)cc12	-2.14	0.651 µM [falling, full curve]	–
COC(=O)COc1ccc(-c2nccc(-c3ccc(Br)cc3)n2)cc1	1.83	7.31 µM [rising, partial curve]	–
CCN(CC(=O)NCc1cccs1)C(=O)c1ccc([N+](=O)[O-])o1	–	–	6.51 µM [falling, single point]
COc1cc(NC(=O)CN(C)S(=O)(=O)c2ccc3c(c2)CC(C)N3C(C)=O)cc(OC)c1 (stereo not drawn)	5.31	–	2.59 µM [rising, partial curve, poor fit]
COc1ccc(C(=O)c2no[n+]([O-])c2C(=O)c2ccc(OC)cc2)cc1	-3.94	29.1 µM [falling, single point]	–
O=C1c2cccc(Sc3ccccc3)c2C(=O)c2c(Sc3ccccc3)cccc21	-64.9	2.31 µM [falling, full curve]	3.26 µM [falling, full curve]
CCn1cc(CN2CCC(n3nccc3NC(=O)c3ccccc3C)CC2)c(C)n1	3.4	–	–
COc1ccccc1CNC(=O)CCC(=O)Nc1nnc(C(C)C)s1	-6.28	29.1 µM [rising, single point]	–
Cc1cc2oc(=O)cc(CN3CCCCC3)c2cc1O	11.7	–	–
O=C(CCc1nc(-c2ccccc2F)no1)NCCN1CCN(Cc2ccccc2)CC1	-22.6	–	–
CCOc1ccc(NC(=O)CSc2cn[nH]n2)cc1	6.43	–	–
Cc1csc(N/N=C/c2c(F)cccc2Cl)n1	-4.17	29.1 µM [falling, partial curve, poor fit]	–
Cc1ccc(S(=O)(=O)N(C)c2ccccc2)cc1	-5.52	1.16 µM [falling, full curve]	0.00461 µM [falling, full curve, poor fit]
O=C(c1ccc(Br)s1)N1CCN(Cc2ccc3c(c2)OCO3)CC1	3.52	18.4 µM [rising, partial curve]	–
COc1ccccc1CN(C)C(=O)c1cccc(S(=O)(=O)N2CCCc3ccccc32)c1	-18.7	1.84 µM [rising, partial curve, poor fit]	–
COc1cc(CC(=O)Nc2nc(-c3ccccc3)c(C(C)=O)s2)cc(OC)c1OC	-2.99	29.1 µM [rising, single point]	–

A different layout for part of the listing above.

| Compound | cell number change [%] | AC50 [1] | AC50 [2] |
| --- | --- | --- | --- |
| O=c1nc2ccc(Cl)cn2c2ccc(S(=O)(=O)N3CCOCC3)cc12 | -2.14 | 0.651 µM [falling, full curve] | – |
| Cc1ccc(S(=O)(=O)N(C)c2ccccc2)cc1 | -5.52 | 1.16 µM [falling, full curve] | 0.00461 µM [falling, full curve, poor fit] |
